Structures can show the parent of a compound that is named as a salt. This is one part of the list. The calls rarely recur for the same compound in another form.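 Kinases, fused to nanoluciferase, were expressed in K562 cells; luminescence was measured every 4 h from 2 to 18 h as percent of control (DMSO = 100%, positive control = 0%). A time point is decreased if signal falls significantly (2 sigma). Hits were called by the authors by a rule that is not shown; the count of time points alone does not decide it.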
Assays:
Experiment in all cases: kinase-Nluc reporter destabilization hit call (1 = scored as downregulated) (binary); higher = compound decreases kinase abundance
Settings in all cases: K562, 2-18 h
[1] = molecular target: ERN1 (UniProt O75460)
[2] = molecular target: FGFR1 (UniProt P11362)
[3] = molecular target: FGFR2 (UniProt P21802)
[4] = molecular target: FGFR3 (UniProt P22607)
[5] = molecular target: FGR (UniProt P09769)
[6] = molecular target: FLT3 (UniProt P36888)
[7] = molecular target: FYN (UniProt P06241)
[8] = molecular target: GSK3A (UniProt P49840)
[9] = molecular target: HER2 (UniProt P04626)
[10] = molecular target: INSRR (UniProt P14616)

Sequences of proteins named here, by UniProt entry; tags and fusion partners are left off. A change or cut given only in a name is not applied to a line headed by its entry.
UniProt P11362, whole entry, looked up: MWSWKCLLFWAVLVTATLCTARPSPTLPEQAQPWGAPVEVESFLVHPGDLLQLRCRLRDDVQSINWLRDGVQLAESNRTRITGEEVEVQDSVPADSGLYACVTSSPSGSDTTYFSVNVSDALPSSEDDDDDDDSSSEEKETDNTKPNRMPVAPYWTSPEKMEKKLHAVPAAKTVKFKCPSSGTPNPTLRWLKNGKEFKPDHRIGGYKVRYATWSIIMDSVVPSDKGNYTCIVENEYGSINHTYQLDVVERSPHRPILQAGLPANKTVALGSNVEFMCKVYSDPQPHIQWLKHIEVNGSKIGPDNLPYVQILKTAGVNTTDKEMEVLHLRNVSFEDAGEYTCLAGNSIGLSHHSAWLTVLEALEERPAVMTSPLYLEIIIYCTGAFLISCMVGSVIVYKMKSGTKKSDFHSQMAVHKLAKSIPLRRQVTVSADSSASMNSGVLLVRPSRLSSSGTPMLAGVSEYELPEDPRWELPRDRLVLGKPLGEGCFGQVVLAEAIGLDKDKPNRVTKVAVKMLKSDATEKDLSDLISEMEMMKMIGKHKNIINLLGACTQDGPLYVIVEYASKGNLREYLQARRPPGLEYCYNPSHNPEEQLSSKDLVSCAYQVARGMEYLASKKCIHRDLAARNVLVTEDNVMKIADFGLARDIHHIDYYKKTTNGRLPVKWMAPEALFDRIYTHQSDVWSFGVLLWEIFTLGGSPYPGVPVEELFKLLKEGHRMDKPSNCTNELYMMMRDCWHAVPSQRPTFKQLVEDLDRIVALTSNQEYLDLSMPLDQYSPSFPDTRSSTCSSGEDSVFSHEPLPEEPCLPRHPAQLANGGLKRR
UniProt P21802, whole entry, looked up: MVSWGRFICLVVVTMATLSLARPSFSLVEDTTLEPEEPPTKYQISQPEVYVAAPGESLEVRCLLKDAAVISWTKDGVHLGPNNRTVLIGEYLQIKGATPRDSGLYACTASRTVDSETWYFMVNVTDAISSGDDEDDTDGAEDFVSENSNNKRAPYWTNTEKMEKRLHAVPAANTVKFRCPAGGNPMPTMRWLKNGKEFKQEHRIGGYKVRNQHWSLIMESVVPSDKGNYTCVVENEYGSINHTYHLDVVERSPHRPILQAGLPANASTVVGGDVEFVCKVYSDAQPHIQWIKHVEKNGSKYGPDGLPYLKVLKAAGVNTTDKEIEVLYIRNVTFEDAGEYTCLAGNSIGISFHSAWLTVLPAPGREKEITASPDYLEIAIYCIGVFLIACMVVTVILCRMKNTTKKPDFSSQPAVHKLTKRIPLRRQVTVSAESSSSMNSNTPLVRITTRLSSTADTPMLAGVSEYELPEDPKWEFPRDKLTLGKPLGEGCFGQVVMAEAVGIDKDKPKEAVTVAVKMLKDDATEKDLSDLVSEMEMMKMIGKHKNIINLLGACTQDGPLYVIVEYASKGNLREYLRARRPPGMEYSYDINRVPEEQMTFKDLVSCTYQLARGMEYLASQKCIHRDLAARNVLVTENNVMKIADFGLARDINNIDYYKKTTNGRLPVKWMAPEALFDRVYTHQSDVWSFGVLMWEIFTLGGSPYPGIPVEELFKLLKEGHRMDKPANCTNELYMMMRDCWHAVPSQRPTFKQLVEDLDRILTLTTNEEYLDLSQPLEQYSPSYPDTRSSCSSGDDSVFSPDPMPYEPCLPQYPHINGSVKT
UniProt P22607, whole entry, looked up: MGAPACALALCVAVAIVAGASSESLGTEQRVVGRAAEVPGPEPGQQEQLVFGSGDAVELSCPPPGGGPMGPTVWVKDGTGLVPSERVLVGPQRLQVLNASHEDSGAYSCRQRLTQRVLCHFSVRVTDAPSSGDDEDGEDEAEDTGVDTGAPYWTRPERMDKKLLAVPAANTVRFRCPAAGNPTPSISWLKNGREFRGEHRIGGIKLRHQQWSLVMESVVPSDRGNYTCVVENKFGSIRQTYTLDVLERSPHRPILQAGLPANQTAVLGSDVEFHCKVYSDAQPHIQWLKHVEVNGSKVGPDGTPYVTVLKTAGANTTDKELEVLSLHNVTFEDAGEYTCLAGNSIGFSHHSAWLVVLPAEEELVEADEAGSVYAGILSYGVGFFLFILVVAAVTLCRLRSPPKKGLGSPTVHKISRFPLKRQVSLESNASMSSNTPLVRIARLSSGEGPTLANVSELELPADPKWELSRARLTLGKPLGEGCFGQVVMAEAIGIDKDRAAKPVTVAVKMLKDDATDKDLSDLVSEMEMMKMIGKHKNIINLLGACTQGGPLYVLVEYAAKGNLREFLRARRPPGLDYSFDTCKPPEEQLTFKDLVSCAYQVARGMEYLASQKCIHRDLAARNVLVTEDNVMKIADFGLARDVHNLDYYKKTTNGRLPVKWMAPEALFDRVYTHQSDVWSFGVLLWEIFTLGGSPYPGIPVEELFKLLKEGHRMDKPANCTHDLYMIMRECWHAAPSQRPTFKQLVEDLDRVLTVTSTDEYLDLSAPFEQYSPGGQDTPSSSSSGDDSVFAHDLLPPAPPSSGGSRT
UniProt P36888, whole entry: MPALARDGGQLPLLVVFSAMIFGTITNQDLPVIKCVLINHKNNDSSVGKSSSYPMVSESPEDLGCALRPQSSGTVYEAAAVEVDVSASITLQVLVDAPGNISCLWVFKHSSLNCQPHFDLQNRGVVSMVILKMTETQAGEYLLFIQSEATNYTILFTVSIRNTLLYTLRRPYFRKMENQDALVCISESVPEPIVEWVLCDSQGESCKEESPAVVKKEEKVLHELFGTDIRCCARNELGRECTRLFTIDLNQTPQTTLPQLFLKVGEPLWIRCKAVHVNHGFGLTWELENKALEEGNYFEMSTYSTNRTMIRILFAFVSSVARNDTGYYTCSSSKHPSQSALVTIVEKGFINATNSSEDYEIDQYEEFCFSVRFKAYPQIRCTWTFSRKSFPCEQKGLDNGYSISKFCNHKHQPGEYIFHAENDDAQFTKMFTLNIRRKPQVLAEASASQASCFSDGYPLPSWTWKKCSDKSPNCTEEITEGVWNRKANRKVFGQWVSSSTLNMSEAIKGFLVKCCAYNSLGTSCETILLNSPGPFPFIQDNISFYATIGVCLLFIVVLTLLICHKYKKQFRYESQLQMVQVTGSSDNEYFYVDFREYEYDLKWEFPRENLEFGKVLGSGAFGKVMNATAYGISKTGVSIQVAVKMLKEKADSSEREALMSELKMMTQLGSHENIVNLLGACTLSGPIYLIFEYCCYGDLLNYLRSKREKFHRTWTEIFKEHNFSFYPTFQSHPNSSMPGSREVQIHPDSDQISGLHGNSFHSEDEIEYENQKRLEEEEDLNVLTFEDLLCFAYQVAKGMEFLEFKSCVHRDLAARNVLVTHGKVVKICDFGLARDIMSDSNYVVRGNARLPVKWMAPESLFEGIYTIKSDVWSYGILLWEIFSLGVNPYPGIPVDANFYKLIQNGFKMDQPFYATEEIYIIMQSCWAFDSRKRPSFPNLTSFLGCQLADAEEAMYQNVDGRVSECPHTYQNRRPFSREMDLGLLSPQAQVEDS
UniProt P06241, whole entry, looked up: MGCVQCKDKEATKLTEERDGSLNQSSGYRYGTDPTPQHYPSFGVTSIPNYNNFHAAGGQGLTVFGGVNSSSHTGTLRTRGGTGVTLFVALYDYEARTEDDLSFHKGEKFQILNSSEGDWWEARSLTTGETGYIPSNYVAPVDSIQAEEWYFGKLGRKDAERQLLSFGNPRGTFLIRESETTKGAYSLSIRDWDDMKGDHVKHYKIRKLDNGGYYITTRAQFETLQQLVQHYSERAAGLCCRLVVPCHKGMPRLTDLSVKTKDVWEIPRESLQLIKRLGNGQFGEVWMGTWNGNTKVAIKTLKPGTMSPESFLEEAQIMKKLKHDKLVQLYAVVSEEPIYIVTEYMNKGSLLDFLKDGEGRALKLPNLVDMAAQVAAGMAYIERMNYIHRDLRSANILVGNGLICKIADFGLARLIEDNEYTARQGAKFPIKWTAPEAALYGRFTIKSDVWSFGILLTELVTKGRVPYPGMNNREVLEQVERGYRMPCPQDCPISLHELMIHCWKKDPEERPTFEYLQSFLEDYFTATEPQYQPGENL
UniProt P49840: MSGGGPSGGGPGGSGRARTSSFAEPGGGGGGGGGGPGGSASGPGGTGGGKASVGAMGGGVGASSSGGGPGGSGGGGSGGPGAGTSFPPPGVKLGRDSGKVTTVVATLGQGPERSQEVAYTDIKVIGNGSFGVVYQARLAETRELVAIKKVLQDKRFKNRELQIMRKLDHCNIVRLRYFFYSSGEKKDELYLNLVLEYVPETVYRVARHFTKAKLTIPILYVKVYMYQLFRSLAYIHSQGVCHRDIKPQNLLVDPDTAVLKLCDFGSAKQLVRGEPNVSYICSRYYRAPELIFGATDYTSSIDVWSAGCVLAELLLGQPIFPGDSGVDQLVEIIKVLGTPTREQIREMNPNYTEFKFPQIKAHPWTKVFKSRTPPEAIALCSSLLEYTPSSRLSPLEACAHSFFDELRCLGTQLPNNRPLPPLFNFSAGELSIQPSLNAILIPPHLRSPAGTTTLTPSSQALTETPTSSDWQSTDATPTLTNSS
UniProt P14616: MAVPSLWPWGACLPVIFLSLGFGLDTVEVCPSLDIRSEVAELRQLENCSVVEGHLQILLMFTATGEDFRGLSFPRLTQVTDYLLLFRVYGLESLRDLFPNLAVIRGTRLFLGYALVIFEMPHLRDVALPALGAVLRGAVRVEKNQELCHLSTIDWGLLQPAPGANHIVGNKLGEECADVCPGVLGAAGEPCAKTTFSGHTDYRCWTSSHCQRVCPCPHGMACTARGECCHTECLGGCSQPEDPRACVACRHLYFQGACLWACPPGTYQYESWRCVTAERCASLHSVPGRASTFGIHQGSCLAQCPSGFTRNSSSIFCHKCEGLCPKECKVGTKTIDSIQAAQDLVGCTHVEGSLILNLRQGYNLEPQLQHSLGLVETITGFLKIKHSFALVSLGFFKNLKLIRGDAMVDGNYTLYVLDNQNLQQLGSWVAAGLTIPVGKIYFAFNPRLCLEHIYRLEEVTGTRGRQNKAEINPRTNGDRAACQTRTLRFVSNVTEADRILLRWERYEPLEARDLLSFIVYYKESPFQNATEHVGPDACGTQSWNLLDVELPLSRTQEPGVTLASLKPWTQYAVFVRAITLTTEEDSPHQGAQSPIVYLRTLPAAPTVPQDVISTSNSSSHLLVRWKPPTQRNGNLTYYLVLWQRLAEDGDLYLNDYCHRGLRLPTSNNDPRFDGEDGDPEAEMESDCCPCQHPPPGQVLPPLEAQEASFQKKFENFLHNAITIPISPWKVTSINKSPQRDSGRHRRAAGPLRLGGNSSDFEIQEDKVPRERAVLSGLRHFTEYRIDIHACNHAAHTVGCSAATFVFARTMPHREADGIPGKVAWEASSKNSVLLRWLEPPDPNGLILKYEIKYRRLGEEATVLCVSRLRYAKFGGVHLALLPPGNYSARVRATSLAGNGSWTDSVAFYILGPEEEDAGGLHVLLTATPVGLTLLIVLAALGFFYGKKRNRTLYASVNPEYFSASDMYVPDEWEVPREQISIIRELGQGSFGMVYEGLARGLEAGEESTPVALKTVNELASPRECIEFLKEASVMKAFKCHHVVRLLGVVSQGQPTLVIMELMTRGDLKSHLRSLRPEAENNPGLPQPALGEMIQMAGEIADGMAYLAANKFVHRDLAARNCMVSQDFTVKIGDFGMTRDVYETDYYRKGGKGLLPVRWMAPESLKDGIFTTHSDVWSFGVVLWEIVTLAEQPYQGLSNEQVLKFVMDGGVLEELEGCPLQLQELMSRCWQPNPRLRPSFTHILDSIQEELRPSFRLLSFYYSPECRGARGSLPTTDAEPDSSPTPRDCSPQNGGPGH

Measured: kinase-Nluc reporter destabilization hit call

CCCOc1ccc(C=C2SC(=O)NC2=O)cc1
inactive: [1]; 10 µM 0 | [2]; 10 µM 0 | [3]; 10 µM 0 | [4]; 10 µM 0 | [5]; 10 µM 0 | [6]; 10 µM 0 | [7]; 10 µM 0 | [8]; 10 µM 0 | [9]; 10 µM 0 | [10]; 10 µM 0

N#CC(=Cc1cc(Cl)cc(Cl)c1)c1cccnc1
inactive: [2]; 10 µM 0 | [3]; 10 µM 0 | [4]; 10 µM 0 | [8]; 10 µM 0 | [9]; 10 µM 0

C=CC(=O)N1C[C@@H](Nc2ncnc3[nH]ccc23)CC[C@H]1C [(2R,5S)-Ritlecitinib]
inactive: [1]; 10 µM 0 | [2]; 10 µM 0 | [3]; 10 µM 0 | [4]; 10 µM 0 | [5]; 10 µM 0 | [6]; 10 µM 0 | [7]; 10 µM 0 | [8]; 10 µM 0 | [9]; 10 µM 0 | [10]; 10 µM 0

Cc1cc2ncnn2cc1Nc1ncc2c(n1)n(C1CCOCC1)c(=O)n2C
inactive: [1]; 10 µM 0 | [5]; 10 µM 0 | [6]; 10 µM 0 | [8]; 10 µM 0 | [9]; 10 µM 0 | [10]; 10 µM 0

Nc1nc(Nc2ccc(S(N)(=O)=O)cc2)nn1C(=O)c1c(F)cccc1F
inactive: [1]; 2.5 µM 0 | [3]; 2.5 µM 0 | [4]; 2.5 µM 0 | [5]; 2.5 µM 0 | [6]; 2.5 µM 0 | [7]; 2.5 µM 0 | [8]; 2.5 µM 0 | [9]; 2.5 µM 0 | [10]; 2.5 µM 0

COc1ccc(-c2cc3nccn3c(Nc3ncccc3C(N)=O)n2)cc1OC [BAY 61-3606 (dihydrochloride)]
inactive: [1]; 2.5 µM 0 | [2]; 2.5 µM 0 | [3]; 2.5 µM 0 | [4]; 2.5 µM 0 | [5]; 2.5 µM 0 | [6]; 2.5 µM 0 | [7]; 2.5 µM 0 | [8]; 2.5 µM 0 | [9]; 2.5 µM 0 | [10]; 2.5 µM 0

CNC(=O)c1cc(Oc2ccc(NC(=O)Nc3ccc(Cl)c(C(F)(F)F)c3)cc2)ccn1 [Sorafenib]
inactive: [1]; 2.5 µM 0 | [2]; 2.5 µM 0 | [3]; 2.5 µM 0 | [4]; 2.5 µM 0 | [5]; 2.5 µM 0 | [6]; 2.5 µM 0 | [7]; 2.5 µM 0 | [8]; 2.5 µM 0 | [9]; 2.5 µM 0 | [10]; 2.5 µM 0

C=CC(=O)Nc1cc2c(Nc3ccc(F)c(Cl)c3)ncnc2cc1OCCCN1CCOCC1 [Canertinib (dihydrochloride)]
inactive: [1]; 2.5 µM 0 | [2]; 2.5 µM 0 | [3]; 2.5 µM 0 | [4]; 2.5 µM 0 | [5]; 2.5 µM 0 | [6]; 2.5 µM 0 | [7]; 2.5 µM 0 | [8]; 2.5 µM 0 | [10]; 2.5 µM 0

Cc1ccc(-n2nc(C(C)(C)C)cc2NC(=O)Nc2ccc(OCCN3CCOCC3)c3ccccc23)cc1 [Doramapimod]
inactive: [1]; 10 µM 0 | [3]; 10 µM 0 | [4]; 10 µM 0 | [5]; 10 µM 0 | [6]; 10 µM 0 | [7]; 10 µM 0 | [8]; 10 µM 0 | [9]; 10 µM 0 | [10]; 10 µM 0

C[C@@H]1CN(C(=O)Nc2ccc(-c3nc(N4CCOCC4)c4cnn(CCCCCCC(=O)NO)c4n3)cc2)CCO1 [HDACs/mTOR Inhibitor 1]
inactive: [1]; 10 µM 0 | [2]; 10 µM 0 | [3]; 10 µM 0 | [4]; 10 µM 0 | [5]; 10 µM 0 | [6]; 10 µM 0 | [7]; 10 µM 0 | [8]; 10 µM 0 | [9]; 10 µM 0 | [10]; 10 µM 0

Quoted at random: two entries already listed, in no set order.
N#CC(=Cc1cc(Cl)cc(Cl)c1)c1cccnc1
inactive: [2]; 10 µM 0 | [3]; 10 µM 0 | [4]; 10 µM 0 | [8]; 10 µM 0 | [9]; 10 µM 0

C=CC(=O)Nc1cc2c(Nc3ccc(F)c(Cl)c3)ncnc2cc1OCCCN1CCOCC1 [Canertinib (dihydrochloride)]
inactive: [1]; 2.5 µM 0 | [2]; 2.5 µM 0 | [3]; 2.5 µM 0 | [4]; 2.5 µM 0 | [5]; 2.5 µM 0 | [6]; 2.5 µM 0 | [7]; 2.5 µM 0 | [8]; 2.5 µM 0 | [10]; 2.5 µM 0

(listing goes on)

O=S(=O)(c1cccc2c(O)nccc12)N1CCCNCC1 [Hydroxyfasudil]
inactive: [1]; 10 µM 0 | [3]; 10 µM 0 | [4]; 10 µM 0 | [5]; 10 µM 0 | [6]; 10 µM 0 | [7]; 10 µM 0 | [8]; 10 µM 0 | [9]; 10 µM 0 | [10]; 10 µM 0

Cc1ccc(Nc2nccc(N(C)c3ccc4c(C)n(C)nc4c3)n2)cc1S(N)(=O)=O [Pazopanib (Hydrochloride)]
inactive: [1]; 10 µM 0 | [3]; 10 µM 0 | [4]; 10 µM 0 | [5]; 10 µM 0 | [6]; 10 µM 0 | [8]; 10 µM 0 | [9]; 10 µM 0 | [10]; 10 µM 0

Cc1cc(C)n2c1C=C1C=CC(CCC(=O)NCCN3CCN(C/C=C/C(=O)N4CCCC(n5nc(-c6ccc(Oc7ccccc7)cc6)c6c(N)ncnc65)C4)CC3)=[N+]1[B-]2(F)F (stereo not given)
inactive: [1]; 2.5 µM 0 | [2]; 2.5 µM 0 | [3]; 2.5 µM 0 | [4]; 2.5 µM 0 | [5]; 2.5 µM 0 | [6]; 2.5 µM 0 | [7]; 2.5 µM 0 | [8]; 2.5 µM 0 | [9]; 2.5 µM 0 | [10]; 2.5 µM 0

Cc1cc(Nc2cc(N3CCN(C)CC3)nc(/C=C/c3ccccc3)n2)n[nH]1
inactive: [1]; 2.5 µM 0 | [3]; 2.5 µM 0 | [4]; 2.5 µM 0 | [5]; 2.5 µM 0 | [6]; 2.5 µM 0 | [7]; 2.5 µM 0 | [8]; 2.5 µM 0 | [9]; 2.5 µM 0 | [10]; 2.5 µM 0

Cc1cc2c(F)c(Oc3ncnn4cc(OC[C@@H](C)O)c(C)c34)ccc2[nH]1 [Brivanib]
inactive: [1]; 10 µM 0 | [3]; 10 µM 0 | [4]; 10 µM 0 | [5]; 10 µM 0 | [6]; 10 µM 0 | [7]; 10 µM 0 | [8]; 10 µM 0 | [9]; 10 µM 0 | [10]; 10 µM 0

CC1(C)CNc2cc(NC(=O)c3cccnc3NCc3ccncc3)ccc21 [Motesanib (Diphosphate)]
inactive: [1]; 2.5 µM 0 | [3]; 2.5 µM 0 | [4]; 2.5 µM 0 | [5]; 2.5 µM 0 | [6]; 2.5 µM 0 | [8]; 2.5 µM 0 | [9]; 2.5 µM 0 | [10]; 2.5 µM 0
active: [7]; 2.5 µM 1

Nc1ncccc1-c1nc2ccc(-c3ccccc3)nc2n1-c1ccc(C2(N)CCC2)cc1 [Miransertib]
inactive: [1]; 10 µM 0 | [2]; 10 µM 0 | [3]; 10 µM 0 | [4]; 10 µM 0 | [5]; 10 µM 0 | [6]; 10 µM 0 | [7]; 10 µM 0 | [8]; 10 µM 0 | [9]; 10 µM 0 | [10]; 10 µM 0

Cc1cnc(Nc2ccc(OCCN3CCCC3)cc2)nc1Nc1cccc(S(=O)(=O)NC(C)(C)C)c1 [Fedratinib (hydrochloride hydrate)]
inactive: [1]; 2.5 µM 0 | [2]; 2.5 µM 0 | [3]; 2.5 µM 0 | [4]; 2.5 µM 0 | [5]; 2.5 µM 0 | [6]; 2.5 µM 0 | [8]; 2.5 µM 0 | [9]; 2.5 µM 0 | [10]; 2.5 µM 0

Fc1ccc(-c2nc(-c3ccc4ccccc4c3F)[nH]c2-c2ccncc2)cc1
active: [9]; 10 µM 1
inactive: [1]; 10 µM 0 | [2]; 10 µM 0 | [4]; 10 µM 0 | [5]; 10 µM 0 | [6]; 10 µM 0 | [7]; 10 µM 0 | [8]; 10 µM 0 | [10]; 10 µM 0

CCn1c(=O)c(-c2cc(NC(=O)Nc3ccccc3)c(F)cc2Br)cc2cnc(NC)cc21 [Ripretinib]
active: [2]; 10 µM 1
inactive: [1]; 10 µM 0 | [3]; 10 µM 0 | [4]; 10 µM 0 | [5]; 10 µM 0 | [6]; 10 µM 0 | [7]; 10 µM 0 | [8]; 10 µM 0 | [9]; 10 µM 0 | [10]; 10 µM 0

CN1CCN(c2ccc3nc(-c4c(N)c5c(F)cccc5[nH]c4=O)[nH]c3c2)CC1 [Dovitinib (lactate)]
inactive: [1]; 2.5 µM 0 | [5]; 2.5 µM 0 | [7]; 2.5 µM 0 | [8]; 2.5 µM 0 | [9]; 2.5 µM 0 | [10]; 2.5 µM 0

COc1cc(N2CCC(N3CCN(C)CC3)CC2)ccc1Nc1ncc(Cl)c(Nc2ccccc2S(=O)(=O)C(C)C)n1
inactive: [1]; 2.5 µM 0 | [2]; 2.5 µM 0 | [3]; 2.5 µM 0 | [4]; 2.5 µM 0 | [5]; 2.5 µM 0 | [7]; 2.5 µM 0 | [8]; 2.5 µM 0 | [9]; 2.5 µM 0 | [10]; 2.5 µM 0

Cc1cc(Nc2cc(N3CCN(C)CC3)nc(/C=C/c3ccccc3)n2)n[nH]1 [ENMD-2076 (Tartrate)]
inactive: [1]; 2.5 µM 0 | [3]; 2.5 µM 0 | [4]; 2.5 µM 0 | [5]; 2.5 µM 0 | [6]; 2.5 µM 0 | [7]; 2.5 µM 0 | [8]; 2.5 µM 0 | [9]; 2.5 µM 0 | [10]; 2.5 µM 0

CCCCCCCCCCCCc1ccc(S(=O)(=O)Nc2nncs2)cc1
inactive: [1]; 10 µM 0 | [2]; 10 µM 0 | [3]; 10 µM 0 | [4]; 10 µM 0 | [5]; 10 µM 0 | [6]; 10 µM 0 | [7]; 10 µM 0 | [8]; 10 µM 0 | [9]; 10 µM 0 | [10]; 10 µM 0

Cc1ccc2c(=O)c3cccc(CC(=O)O)c3oc2c1C [Vadimezan]
inactive: [1]; 10 µM 0 | [2]; 10 µM 0 | [3]; 10 µM 0 | [4]; 10 µM 0 | [5]; 10 µM 0 | [6]; 10 µM 0 | [7]; 10 µM 0 | [8]; 10 µM 0 | [9]; 10 µM 0 | [10]; 10 µM 0

Nc1ncnc2n[nH]c(-c3ccc(Oc4ccccc4)cc3)c12 [Ibrutinib deacryloylpiperidine]
inactive: [1]; 10 µM 0 | [2]; 10 µM 0 | [3]; 10 µM 0 | [4]; 10 µM 0 | [5]; 10 µM 0 | [6]; 10 µM 0 | [7]; 10 µM 0 | [8]; 10 µM 0 | [9]; 10 µM 0 | [10]; 10 µM 0

C[C@@]1(C(=O)Nc2ccc(F)nc2)CCCN1c1nc(Nc2cc(C3CC3)n[nH]2)c2cccn2n1
inactive: [1]; 10 µM 0 | [5]; 10 µM 0 | [7]; 10 µM 0 | [8]; 10 µM 0 | [9]; 10 µM 0 | [10]; 10 µM 0

From the supplement of paper PMC12823440, “Inhibitors supercharge kinase turnover through native proteolytic circuits” (Nature, 2025)
